This experiment has as its target T1, FLAG-miP-FERMT3 (human).
T1 sequence: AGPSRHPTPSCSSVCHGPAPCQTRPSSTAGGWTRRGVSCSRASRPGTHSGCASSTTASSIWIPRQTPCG
Kind of experiment: affinity purification with mass spectrometry.

No constants are given. Whether binding was seen depends on the method and setting. In cells and extracts the contact can be indirect. A yes stands for co-enrichment or nearness to the bait. Other partners may have been found. Tags and fused reporters may be left off the sequences shown.

B1: 26S proteasome non-ATPase regulatory subunit 9 (PSMD9) (protein, UniProt O00233 1-223)
chain: MSDEEARQSGGSSQAGVVTVSDVQELMRRKEEIEAQIKANYDVLESQKGIGMNEPLVDCEGYPRSDVDLYQVRTARHNIICLQNDHKAVMKQVEEALHQLHARDKEKQARDMAEAHKEAMSRKLGQSESQGPPRAFAKVNSISPGSPASIAGLQVDDEIVEFGSVNTQNFQSLHNIGSVVQHSEGKPLNVTVIRRGEKHQLRLVPTRWAGKGLLGCNIIPLQR
In the case of B1, the binding entry was “binds”.

B2: TRIM8 (protein, UniProt Q9BZR9 1-551)
chain: MAENWKNCFEEELICPICLHVFVEPVQLPCKHNFCRGCIGEAWAKDSGLVRCPECNQAYNQKPGLEKNLKLTNIVEKFNALHVEKPPAALHCVFCRRGPPLPAQKVCLRCEAPCCQSHVQTHLQQPSTARGHLLVEADDVRAWSCPQHNAYRLYHCEAEQVAVCQYCCYYSGAHQGHSVCDVEIRRNEIRKMLMKQQDRLEEREQDIEDQLYKLESDKRLVEEKVNQLKEEVRLQYEKLHQLLDEDLRQTVEVLDKAQAKFCSENAAQALHLGERMQEAKKLLGSLQLLFDKTEDVSFMKNTKSVKILMDRTQTCTSSSLSPTKIGHLNSKLFLNEVAKKEKQLRKMLEGPFSTPVPFLQSVPLYPCGVSSSGAEKRKHSTAFPEASFLETSSGPVGGQYGAAGTASGEGQSGQPLGPCSSTQHLVALPGGAQPVHSSPVFPPSQYPNGSAAQQPMLPQYGGRKILVCSVDNCYCSSVANHGGHQPYPRSGHFPWTVPSQEYSHPLPPTPSVPQSLPSLAVRDWLDASQQPGHQDFYRVYGQPSTKHYVTS
As for B2, the binding entry was “binds”.

Source of the values: doi:10.64898/2025.12.03.692074.
